# “And” between values parts separate entries of the source, which are not always exact repeats. Identical values can stand only once. Counter-ions that a name gives are not always drawn. ± gives the standard deviation of the averaged measurements. Some of the results follow. Plates or batches differ in their baseline, so values are only roughly comparable.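 Primary human stellate myofibroblasts activated in culture; inactivation shown by regained lipid droplets. Readout: fraction of Hoechst-counted cells exceeding a per-plate Bodipy threshold, duplicate wells, each plate with DMSO negative and nortriptyline positive controls. Hits: control-normalized score beyond the plate's top-tenth-percentile nortriptyline wells, or among its three best wells. Final well concentrations unstated.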
# Test system: primary human hepatic stellate cells (donor 1)
# Test: percent Bodipy-positive cells; higher = more lipid droplet accumulation
# Conditions: 48 h
# [1] = library stock concentration: 10 mM
# [2] = library stock concentration: 80 uM
# [3] = library stock concentration: 400 uM
# [4] = library stock concentration: 2 mM
# [5] = library stock concentration: 3.33 mM
# [6] = library stock concentration: 1 mM
compound,measurement,setting,value
COCCOc1cc2nc[nH]c(=O)c2cc1OCCOC,percent Bodipy-positive cells,[1],44.2 ± 2.2%
O=C1O[C@H](CO)[C@@H](O)[C@H](O)[C@H]1O [Gluconolactone],percent Bodipy-positive cells,[1],45.3 ± 5%
CS(=O)(=O)c1cccc(CNc2nc(Nc3ccc4c(c3)CCC(=O)N4)ncc2C(F)(F)F)c1,percent Bodipy-positive cells,[2],6.19 ± 1.3%
same,percent Bodipy-positive cells,[3],3.88 ± 0.85%
same,percent Bodipy-positive cells,[4],3.46 ± 1.3%
same,percent Bodipy-positive cells,[5],4.04 ± 0.53%
CCCCCCCCCCC[C@@H](C[C@@H]1OC(=O)[C@H]1CCCCCC)OC(=O)[C@H](CC(C)C)NC=O [Orlistat],percent Bodipy-positive cells,[5],24.5 ± 2%
same,percent Bodipy-positive cells,library stock concentration: 4 mM,40.7 ± 6.5%
CCCCCCCCCCC[C@@H](C[C@@H]1OC(=O)[C@H]1CCCCCC)OC(=O)[C@H](CC(C)C)NC=O,percent Bodipy-positive cells,[1],56.6 ± 13%
CC1(C)CCC(CN2CCN(c3ccc(C(=O)NS(=O)(=O)c4ccc(NCC5CCOCC5)c([N+](=O)[O-])c4)c(Oc4cnc5[nH]ccc5c4)c3)CC2)=C(c2ccc(Cl)cc2)C1,percent Bodipy-positive cells,[5],31 ± 4.5%
same,percent Bodipy-positive cells,[1],26.5 ± 6.2%
CC(C)(C)n1nc(-c2ccc(Cl)cc2)c2c(N)ncnc21,percent Bodipy-positive cells,[5],14.5 ± 1.8%
same,percent Bodipy-positive cells,[1],54.7 ± 0.71%
CN1CCCC(n2nc(Cc3ccc(Cl)cc3)c3ccccc3c2=O)CC1.Cl (stereo unspecified) [Azelastine hydrochloride],percent Bodipy-positive cells,library stock concentration: 4.8 mM,89.1 ± 4.4%
same,percent Bodipy-positive cells,[1],91.9 ± 6.3%
Cc1cc(C(=O)Nc2cc(Nc3ccc4c(/C=C/c5ccccn5)n[nH]c4c3)ccc2F)n(C)n1,percent Bodipy-positive cells,[3],14 ± 1.4%
same,percent Bodipy-positive cells,[4],51.2 ± 1.5%
O=C(O)c1ccccc1Nc1ccccc1 [N-Phenylanthranilic acid],percent Bodipy-positive cells,[1],57 ± 5.1%
same,percent Bodipy-positive cells,library stock concentration: 23.5 mM,21.7 ± 0.61%
COc1ccccc1N1CCN(CCCCNC(=O)c2ccc3ccccc3c2)CC1,percent Bodipy-positive cells,[1],94.37 ± 0.81%
CCCCCCCCCCC1=C(C)C(=O)C(OC)=C(OC)C1=O [Decylubiquinone],percent Bodipy-positive cells,library stock concentration: 15.5 mM,9.52 ± 5.3%
NC(=O)CCCSc1nc(N)nc(-c2c(Cl)cc3c4c(cccc24)COC3)n1,percent Bodipy-positive cells,[5],84.42 ± 0.13%
same,percent Bodipy-positive cells,[1],89.9 ± 3.4%
C[C@@H]1NC(=O)NC1=O [Methylhydantoin-5-(L)],percent Bodipy-positive cells,,8.3 ± 0.54%
C=CC[C@H](N)C(=O)O [L-allylglycine],percent Bodipy-positive cells,[1],51.6 ± 8.2%
Brc1ccc([C@H]2CN3CCSC3=N2)cc1 [S(-)-p-Bromotetramisole oxalate],percent Bodipy-positive cells,[1],64.3 ± 6.4%
O=C(CCC/C=C\C[C@@H]1C(/C=C/[C@@H](O)COc2cccc(C(F)(F)F)c2)[C@H](O)C[C@@H]1O)NC(CO)CO (stereo partly specified) [Fluprostenol serinol amide],percent Bodipy-positive cells,[6],18.4 ± 6.6%
C=CC(=O)N1CCC(Oc2cc3c(Nc4ccc(Cl)c(Cl)c4F)ncnc3cc2OC)CC1 [Poziotinib],percent Bodipy-positive cells,[2],22.2 ± 11%
same,percent Bodipy-positive cells,[3],25.1 ± 1.9%
same,percent Bodipy-positive cells,[4],12.5 ± 2.9%
same,percent Bodipy-positive cells,[1],70.7 ± 1.1%
CCN(CCO)CCCOc1ccc2c(Nc3cc(CC(=O)Nc4cccc(F)c4)[nH]n3)ncnc2c1 [Barasertib (AZD1152-HQPA)],percent Bodipy-positive cells,[5],18.9 ± 4.8%
same,percent Bodipy-positive cells,[1],33.9 ± 9%
CCCCCCCCCCCCCCCC(=O)OC[C@H](COP(=O)([O-])OCC[N+](C)(C)C)OC(=O)CCCCCCCC(=O)O,percent Bodipy-positive cells,[6],9.04 ± 0.41%
CCCCC[C@H](O)/C=C/[C@H]1CCC(=O)[C@@H]1CCCCCCC(=O)O [11-deoxy Prostaglandin E1],percent Bodipy-positive cells,[6],17.2 ± 1.2%
CCCCCCCCCCCCCCCC(=O)NCCO [Palmitoylethanolamide],percent Bodipy-positive cells,[1],5.44 ± 0.8%
CCCCCCCCCCCCCCCC(=O)NCCO [Palmitoyl Ethanolamide],percent Bodipy-positive cells,[6],11.9 ± 6%
CCCCCCCCCCCCCCCC(=O)NCCO [Palmitylethanolamide],percent Bodipy-positive cells,[6],10.2 ± 3.2%
CCCCCCCCCCCCCCCC(=O)NCCO,percent Bodipy-positive cells,[1],27.4 ± 5.6%
Cc1c(Cc2ccc3ccccc3n2)c2cc(F)ccc2n1CC(=O)O,percent Bodipy-positive cells,[5],8.34 ± 0.87%
same,percent Bodipy-positive cells,[1],55.6 ± 47%
C[C@@H](Oc1cc(-n2cnc3ccc(CN4CCN(C)CC4)cc32)sc1C(N)=O)c1ccccc1C(F)(F)F,percent Bodipy-positive cells,[4],78.4 ± 3%
same,percent Bodipy-positive cells,[1],97.33 ± 0.73%
CO[C@@H](C(=O)N1Cc2[nH]nc(NC(=O)c3ccc(N4CCN(C)CC4)cc3)c2C1)c1ccccc1,percent Bodipy-positive cells,[3],19.2 ± 11%
same,percent Bodipy-positive cells,[4],38.2 ± 8.2%
same,percent Bodipy-positive cells,[5],78.3 ± 16%
same,percent Bodipy-positive cells,[1],88.4 ± 0.29%
CN1CCN(C2=Nc3cc(Cl)ccc3Nc3ccccc32)CC1 [Clozapine],percent Bodipy-positive cells,[5],41.2 ± 7.1%
same,percent Bodipy-positive cells,[1],71.9% and 79.5%
same,percent Bodipy-positive cells,library stock concentration: 15.3 mM,88.5 ± 6.2%
NC12CC3CC(CC(C3)C1)C2 [Adamantamine fumarate],percent Bodipy-positive cells,,23 ± 4.6%
NC12CC3CC(CC(C3)C1)C2 [Amantadine HCl],percent Bodipy-positive cells,[5],9.3 ± 2.1%
same,percent Bodipy-positive cells,[1],15.442 ± 0.014%
NC12CC3CC(CC(C3)C1)C2 [Amantadine hydrochloride],percent Bodipy-positive cells,library stock concentration: 10.7 mM,5.43 ± 0.12%
NC12CC3CC(CC(C3)C1)C2 [Symmetrel],percent Bodipy-positive cells,[1],52.7 ± 1.5%
N#C/C(=C\c1ccc(O)c(O)c1)C(=O)c1ccc(O)c(O)c1 [Tyrphostin AG 538],percent Bodipy-positive cells,[1],15.6 ± 2.4%
CCCCCCCCCCCCCCCC(=O)OC[C@H](COP(=O)([O-])OCC[N+](C)(C)C)OC(=O)CCCC(=O)/C=C/C(=O)O,percent Bodipy-positive cells,[6],5.64 ± 0.77%
CO[C@H]1O[C@@H]2O[C@@]3(C)CC[C@H]4[C@H](C)CC[C@@H]([C@H]1C)[C@@]24OO3,percent Bodipy-positive cells,[1],12 ± 0.98%
CO[C@H]1O[C@@H]2O[C@@]3(C)CC[C@H]4[C@H](C)CC[C@@H]([C@H]1C)[C@@]24OO3 [Artemether],percent Bodipy-positive cells,[5],12.4 ± 3.7%
same,percent Bodipy-positive cells,[1],14% and 37.5%
"CCCCC(C)(C)[C@H](O)/C=C/[C@H]1CCC(=O)[C@@H]1C/C=C\CCCC(=O)O [11-deoxy-16,16-dimethyl Prostaglandin E2]",percent Bodipy-positive cells,[6],34.4 ± 5.2%
